Data: the supplement of paper PMC10973195
± gives the standard deviation of the averaged measurements. The list shows a part of the results. Values are raw readings; no control value is given beside them.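 A neuron, microglia and astrocyte co-culture models inflammatory neurodegeneration: bacterial LPS drives microglia-dependent neuron loss. Each compound was tested against DMSO vehicle wells on the same plates; BAY61-3606, a SYK inhibitor, was the reference neuroprotective control.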

The compounds below were run on rat primary cerebellar neuron-glia coculture (assay: median microglial FormFactor (circularity) per image (dimensionless (0-1)); higher = rounder, more ameboid microglia). Conditions: LPS 100 ng/mL; 1 µM; treatment time 3 days.

| SMILES | median microglial FormFactor |
| --- | --- |
| CCOc1ccccc1N1CCN(Cc2cccc3ccccc23)CC1 | 0.644 ± 0.05 |
| Cc1cccc([C@H](C)c2c[nH]cn2)c1C | 0.651 ± 0.087 |
| OC1(c2ccc(Cl)cc2)c2ccccc2C2=NCCN21 (stereo unspecified) | 0.674 ± 0.1 |
| Clc1ccc(OC[C@H]2CCN2)cn1 | 0.646 ± 0.063 |
| O=[N+]([O-])/N=C1\NCCN1Cc1ccc(Cl)nc1 | 0.676 ± 0.061 |
| C[N+]1(C)[C@@H]2C[C@@H](OC(=O)[C@H](CO)c3ccccc3)C[C@H]1[C@@H]1O[C@@H]12 | 0.652 ± 0.09 |
| Clc1ccc2c(c1Cl)CNCC2 | 0.665 ± 0.1 |
| C[C@]12CC[C@H](O)C[C@H]1CC[C@@H]1[C@@H]2CC[C@]2(C)[C@@H](C3=CC(=O)OC3)CC[C@]12O | 0.66 ± 0.087 |
| Cc1cccc(NC(=O)N[C@@H]2N=C(c3ccccc3)c3ccccc3N(C)C2=O)c1 | 0.689 ± 0.078 |
| Cn1c(CCCC(=O)O)nc2cc(N(CCCl)CCCl)ccc21 | 0.653 ± 0.08 |
| CN/C(=N\S(=O)(=O)c1ccc(Cl)cc1)N1CC(c2ccccc2)C(c2ccc(Cl)cc2)=N1 (stereo unspecified) | 0.668 ± 0.091 |
| NCCc1cc(I)c(Oc2ccc(O)c(I)c2)c(I)c1 | 0.691 ± 0.073 |
| O=C(NC1CN2CCC1CC2)c1cc(Br)cc2nc[nH]c12 (stereo unspecified) | 0.685 ± 0.07 |
| O=C1NC(=O)N(c2cccc3ccccc23)C(=O)/C1=C\c1c[nH]c2ccccc12 | 0.729 ± 0.058 |
| CN(C)C(=O)Oc1ccc2cc(Br)ccc2c1Br | 0.63 ± 0.054 |
| COc1ccc2c(c[n+](C)c3c4cc5c(cc4ccc23)OCO5)c1OC | 0.609 ± 0.088 |
| c1ccc(CCCN2CCN(CCOC(c3ccccc3)c3ccccc3)CC2)cc1 | 0.716 ± 0.04 |
| C[C@@H]1CN([C@H]2CC[C@](C#N)(c3ccc(F)cc3)CC2)CC[C@]1(C(=O)O)c1ccccc1 | 0.675 ± 0.053 |
| N#Cc1nn(-c2c(Cl)cc(C(F)(F)F)cc2Cl)c(N)c1[S+]([O-])C(F)(F)F (stereo unspecified) | 0.723 ± 0.08 |
| O=C(O[C@H]1C[N+]2(CCCOc3ccccc3)CCC1CC2)C(O)(c1cccs1)c1cccs1 | 0.662 ± 0.062 |
| O=C1CCCC2[C@H]3CNC[C@H](C3)CN12 (stereo partly specified) | 0.616 ± 0.099 |
| C=CCN(CC=C)CCc1c[nH]c2ccc(OC)cc12 | 0.624 ± 0.056 |
| C[N+]1(C)CCO[C@@](O)(c2ccc(-c3ccc([C@@]4(O)C[N+](C)(C)CCO4)cc3)cc2)C1 | 0.671 ± 0.061 |
| CCNC(=O)C[C@@H]1N=C(c2ccc(Cl)cc2)c2cc(OC)ccc2-n2c(C)nnc21 | 0.624 ± 0.083 |
| O=C(c1ccccc1)C(F)(F)F | 0.657 ± 0.049 |
| C=C(C)[C@H]1Cc2c(ccc3c2O[C@@H]2COc4cc(OC)c(OC)cc4[C@@H]2C3=O)O1 | 0.651 ± 0.045 |

Among those listed so far, these have bromine.

| SMILES | median microglial FormFactor |
| --- | --- |
| O=C(NC1CN2CCC1CC2)c1cc(Br)cc2nc[nH]c12 (stereo unspecified) | 0.685 ± 0.07 |
| CN(C)C(=O)Oc1ccc2cc(Br)ccc2c1Br | 0.63 ± 0.054 |
